{"sequences": {"note": "Amino acid sequences for entries named in this document (tags omitted). Residues count along the entry.", "UniProt P16422, 24-314": "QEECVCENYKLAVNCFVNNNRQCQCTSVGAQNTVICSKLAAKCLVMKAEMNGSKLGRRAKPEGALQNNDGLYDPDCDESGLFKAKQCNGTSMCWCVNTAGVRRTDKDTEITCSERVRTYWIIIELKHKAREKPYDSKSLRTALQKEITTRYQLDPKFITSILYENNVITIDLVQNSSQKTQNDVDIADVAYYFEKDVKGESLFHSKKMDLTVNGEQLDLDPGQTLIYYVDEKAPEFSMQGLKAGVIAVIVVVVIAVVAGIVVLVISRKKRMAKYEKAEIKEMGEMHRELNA"}, "source": "paper PMC12677621", "target": "EpCAM (cell membrane + SKBR3 and HepG2 cells) (human) (UniProt P16422)", "assay": "cell capture by aptamer-bearing DNA array, CLSM with EpCAM/CD45 immunostaining", "details": "MMDA hunter, tumor cells, avidity and whole-cell binding, no Kd; Capture at 37 C for 60 min with 100 ug/mL MMDA hunter and 5000 cells; protein on the cell surface; folded or branched DNA", "note": "For at least one entry, the source does not settle the construct or the ends of the probe. Where cells or extracts were used, other partners may take part.", "data": [{"sequence": "AGGCACCATCGTAGGTTTCTTGCCAGGCACCATCGTAGGTTTCTTGCCAGGCACCATCGTAGGTTTCTTGCCAGTATGCGTTCACTACAGAGGTTGCGTCTGTCCCACGTTGTCATGGGGGGTTGGCCTG", "values": [{"measurement": "binding result", "result": "binds"}]}]}
